## Primary screen of a compound library

Source: ChEMBL document CHEMBL3988442, “University of Dundee, Small-Polar-MMV Screening Library” (2021).

Toxoplasma: 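Assay of Toxoplasma gondii numbers, read through their beta-galactosidase reporter with a colour substrate. Compounds at 10 µM. The record gives no direction; the compounds picked for IC50 retests had high values, so higher reads as fewer parasites. About 67,000 compounds were tested under these conditions; 0.38% (about 260) showed 50% or more at least once.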
Leishmania in macrophages: 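Cell assay of Leishmania donovani living inside macrophages; the read-out is not stated. Concentration: 30 µM. Direction is inferred from retests: higher values go with stronger inhibition. About 69,000 compounds were tested under these conditions; 1.5% (about 1,000) showed 50% or more at least once.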

The filed quantity is “Percent Effect” (%).
The record does not define 0% and 100%; most values in the screen are far below 50% and negative numbers occur (in some assays of this library far below -100).
The compounds are a random part of those screened.
Two or more numbers in one place are separate tests of the same structure; such repeats can differ widely.

| # | compound | Toxoplasma | Leishmania in macrophages |
|---|---|---|---|
| 1 | `CN(C)C(=O)CCC1CCCN(Cc2cccc(-c3ccccn3)c2)C1` (centres unmarked) | -0.7692% | 6.019% |
| 2 | `Cc1cc(N2CCC(Cc3ccccc3)CC2)nc(-c2ccncc2)n1` | 0.4449% | 47.9% |
| 3 | `CCS(=O)(=O)c1ccccc1N1CCC(NC(=O)C(C)C)CC1` | -0.6701% | 28.45% |
| 4 | `CNS(=O)(=O)CCCN1CCCC1c1noc(C)n1` (centres unmarked) | 17.61% | -3.094% |
| 5 | `[H][C@]12CC[C@](O)(CC1)C(COC)N2C(=O)c1ccco1` (some centres unmarked) | -16% | -6.97% |
| 6 | `CNC(=O)c1ccc(C(=O)N2CCCC(n3nc(C)cc3C)C2)cn1` (centres unmarked) | 20.23% | 25.81% |
| 7 | `Cc1cc(C(=O)NCc2ccnc(N3CCN(C)CC3)c2)no1` | -3.458% | 35.55% |
| 8 | `COCC(=O)N1CCCC1c1nccnc1Nc1nc(C)cs1` (centres unmarked) | -3.936% | 12.82% & -6.305% |
| 9 | `O=C(O)C(F)(F)F.O=C(O)C(F)(F)F.[H][C@@]12CN(Cc3ccncc3)C[C@]1([H])C(=O)N(c1cncnc1)C2` | 5.726% | -8.573% |
| 10 | `[H][C@]12CC[C@]([H])(CN(S(C)(=O)=O)C1)N(C(=O)CCc1n[nH]c3c1CCCC3)C2` | -5.664% | 4.212% |
| 11 | `Cc1ccc(C(=O)Nc2cn[nH]c2)cc1C` | -14.54% | 13.09% |
| 12 | `O=C(O)c1ccccc1-c1ccc(CN2CCOCC2)cn1` | 11.63% | 23.04% |
| 13 | `COc1ccc2nc(C[C@@H]3C[C@@H](C(C)C)[C@H](CN)C=C3C)[nH]c2n1` | 12.69% | 7.616% |
| 14 | `CC1CCCN(CCNC(=O)c2ccn(-c3cccc(F)c3)n2)C1` (centres unmarked) | -19.88% | 17.96% |
| 15 | `CN(Cc1ncnn1C)C(=O)c1ccccc1NCc1ccccc1` | 3.363% | -32.84% |
| 16 | `Cc1ccc(Nc2ncnc3c2CCN(CC2CCOC2)CC3)cc1.O=C(O)C(F)(F)F` (centres unmarked) | 7.587% | -7.14% |
| 17 | `CNC(=O)CCCNCc1c(C)nn(CC(C)C)c1N(C)C` | -23.5% | -7.459% |
| 18 | `CCn1nc(Br)nc1Sc1ccccc1NC(C)=O` | -12.38% | -5.242% |
| 19 | `CC(C)n1c(=O)c2sccc2n(CC(=O)Nc2ccccc2)c1=O` | -1.279% | 12.43% |
| 20 | `CN(C)C(=O)COCC1CN(Cc2ccco2)Cc2ncn(C)c21.O=C(O)C(F)(F)F.O=C(O)C(F)(F)F` (centres unmarked) | 12.53% | 26.17% |
| 21 | `Cc1ncsc1CN1CCN(C2CCOCC2)CC(C(N)=O)C1` (centres unmarked) | -23.32% | 15.16% |
| 22 | `[H][C@]12CC[C@]([H])(CN(Cc3[nH]cnc3C)C1)N(Cc1ccccc1SC)C2` | -29.56% | 9.531% |
| 23 | `CC(C)[C@H](NC(=O)NC1CCS(=O)(=O)C1)C(=O)NCc1ccccc1` (some centres unmarked) | -41.31% | -0.6556% |
| 24 | `NC(=O)CCC1CCCN(c2ncnc3c2Cc2ccccc2OC3)C1` (centres unmarked) | -22.41% | 40.76% |
| 25 | `[H][C@@]12CCN(Cc3cccnc3)[C@@]1([H])CCN2C(=O)Cc1cccs1` | 7.064% | 8.211% |
| 26 | `COc1ccc(F)c(-c2ncccc2NC(=O)C(C)C)c1` | 11.48% | -1.705% |
| 27 | `Cc1noc(C)c1S(=O)(=O)NC(=O)COc1cccc(C(C)C)c1` | -11.89% | 11.35% |
| 28 | `[H][C@@]12CC(COCc3ccncc3)C[C@@]1([H])N(C(=O)CN(C)C)CCO2` (some centres unmarked) | 8.461% | 34.38% |
| 29 | `CCn1cc(CNC2CCN(c3cccc(C)c3C)CC2)cn1` | -6.162% | 32.58% |
| 30 | `COCCn1ccc2c(cnc3nc(SC)nn32)c1=O` | -7.761% | -4.741% |
| 31 | `COc1cccc(NC(=O)c2cc3c([nH]c2=O)CCCC3=O)c1` | 5.193% | 14.24% |
| 32 | `CN(Cc1nc(-c2ccccc2)c[nH]1)C(=O)NCC(=O)NC(C)(C)C` | -6.621% | 16.62% |
| 33 | `Cc1ccc(C(NC(=O)CCNC(=O)c2ccoc2)C(F)(F)F)cc1` (centres unmarked) | -16.73% | 14.73% |
| 34 | `Cc1cc(C(=O)N2CCCCC2C)ccc1NC(=O)N1CCOCC1` (centres unmarked) | 8.482% | 22% |
| 35 | `COc1cc(C(=O)N(Cc2cccs2)C2CC2)cc2c1OCCO2` | -1.512% | -33.94% |
| 36 | `O=C(NCCn1ccc(-c2ccncc2)n1)c1ccncc1` | 1.642% | 27.13% |
| 37 | `CS(=O)(=O)NCc1cncc2c1CCN(C(=O)N1CCCC1)C2.Cl` | 34.22% | 10.06% |
| 38 | `N#Cc1cc(NC(=O)c2cc[nH]n2)ccc1N1CCC(O)CC1` | -0.6321% | 5.631% |
| 39 | `CCOC(=O)[C@H]1[C@@H](O)C(=O)N(C)C12CCN(C(=O)c1ccccc1)CC2` | -16.32% | 22.57% |
| 40 | `CCS(=O)(=O)N1CCC2(CC1)COC(COc1cccnc1)C2.O=C(O)C(F)(F)F` (centres unmarked) | 4.843% | 15.1% |
| 41 | `CN(C)c1cc(C(=O)N2CCN(S(C)(=O)=O)CC2)ccn1` | -15.56% | 12.05% |
| 42 | `Cc1ccc(C2C3=C(COC3=O)Nc3[nH]nc(C)c32)cc1C` (centres unmarked) | 1.195% | -34.51% |
| 43 | `CN(CC(=O)Nc1nncs1)CC1CCCN1c1cccnn1` (centres unmarked) | -1.661% | 5.092% |
| 44 | `COCC(=O)N(CCC(=O)OC)CC1CCCO1` (centres unmarked) | 3.95% | -19.76% |
| 45 | `CC(C)[C@H]1CN(S(=O)(=O)c2cccnc2)C[C@@H]1N` | 0.4263% | 15.79% |
| 46 | `Cc1cccc2c1cnn2CCCNC(=O)c1ccnn1C` | 2.088% | 29.74% |
| 47 | `CCOc1ccccc1OC1CCN(C(=O)c2c[nH]nn2)CC1` | 6.031% | 33.42% |
| 48 | `O=C(c1cc(C2CC2)nc2onc(-c3ccccc3)c12)N1CC(O)C1` | -26.83% | -12.29% |
| 49 | `C=Cc1ccc(C(=O)N2CCCC(Nc3ccc(F)c(F)c3)C2)cc1` (centres unmarked) | -2.514% | -4.498% |
| 50 | `Cc1nn(C)cc1-c1ccnc(N2CCN(c3ccccc3)C(=O)C2)n1` | -2.923% | 0.1677% |
| 51 | `CCN(C(=O)c1ccc2nnc(C3CCN(CCOC)C3)n2c1)C(C)C.O=C(O)C(F)(F)F` (centres unmarked) | -12.37% | -7.45% |
| 52 | `Cc1noc2ncc(C(=O)N(CC3CCOC3)C3CC3)cc12` (centres unmarked) | -20.04% | -14.21% |
| 53 | `COc1cccc(C2SCC(=O)Nc3ccsc32)c1` (centres unmarked) | -4.911% | 5.158% |
| 54 | `CC(C)COc1cncc(N2CCCN(CC(F)(F)F)CC2)n1` | -5.724% | 14.95% |
| 55 | `Cc1nc2ccccc2n1CCNCc1cccc(O)c1` | 7.159% | 36.45% |
| 56 | `CCCc1nc(C(C)(C)NC(=O)C2CC(=O)N(C3CC3)C2)no1` (centres unmarked) | 4.754% | 21.35% |
| 57 | `CC(Cn1ccnc1)NC(=O)N(C)Cc1ccsc1` (centres unmarked) | -10.92% | 3.321% |
| 58 | `CC(=O)Nc1ccc2c(c1)nc1n2[C@@H](CNCc2ccccc2)COC1` | -3.063% | -0.9904% |
| 59 | `COC(=O)c1ccc(Cn2cnc(C#N)n2)cc1` | 2.754% | -9.914% |
| 60 | `Clc1cc(CN2CCCCC2Cn2cncn2)c2ncccc2c1` (centres unmarked) | 2.977% | 20.46% |
| 61 | `Cc1cc(=O)n2nc(Oc3ccc(F)c(F)c3)sc2n1` | -1.128% | -0.08982% |

Repeated from the top, 4 entries:

| compound | Toxoplasma | Leishmania in macrophages |
|---|---|---|
| `CN(C)C(=O)CCC1CCCN(Cc2cccc(-c3ccccn3)c2)C1` (centres unmarked) | -0.7692% | 6.019% |
| `Cc1cc(N2CCC(Cc3ccccc3)CC2)nc(-c2ccncc2)n1` | 0.4449% | 47.9% |
| `CCS(=O)(=O)c1ccccc1N1CCC(NC(=O)C(C)C)CC1` | -0.6701% | 28.45% |
| `CNS(=O)(=O)CCCN1CCCC1c1noc(C)n1` (centres unmarked) | 17.61% | -3.094% |